According to PMC8126888 (RSC Medicinal Chemistry, 2020):

Each compound was assayed on primary peritoneal mouse macrophages (PMM). Details: PMM IC50 vs L. infantum IC50.

SMILES | SI (vs PMM)
COc1ccc(S(=O)(=O)N(C)C)cc1NC(=O)Cn1c(=O)cnc2ccccc21 [Compound Z19025005] | 1
CCN(CC)S(=O)(=O)c1cc(NC(=O)c2[nH]c(C)c(C(=O)OC)c2C)ccc1C [Compound Z26467494] | 2
CCOc1ccc(NC(=O)c2[nH]c(C)c(C(=O)OC)c2C)cc1S(=O)(=O)N1CCCC1 [Compound Z29178369] | 1
COc1ccc(S(=O)(=O)N(C)C)cc1NC(=O)CN1C(=O)COc2ccccc21 [Compound Z29560624] | 1
CCOC(=O)c1c(C)[nH]c(C(=O)Nc2cccc(S(=O)(=O)N3CCOCC3)c2)c1C [Compound Z30001211] | 1
COC(=O)c1c(C)[nH]c(C(=O)Nc2cccc(S(=O)(=O)N3CCCC3)c2)c1C [Compound Z30224758] | 1
CCOC(=O)c1c(C)[nH]c(C(=O)Nc2ccc(Cl)c(S(=O)(=O)N3CCCCC3)c2)c1C [Compound Z30461235] | 5
CCOC(=O)c1c(C)[nH]c(C(=O)NNC(=O)c2cccc(S(=O)(=O)N(CC)CC)c2)c1C [Compound Z30581529] | 1
CC1Cc2ccccc2N1CC(=O)Nc1ccc(Cl)c(S(=O)(=O)N(C)C)c1 (stereo not drawn) [Compound Z30956600] | 1
CN(C)S(=O)(=O)c1cccc(NC(=O)CNc2cccc3c2CCCC3)c1 [Compound Z30985744] | 1
CN(Cc1ccccc1NCC(=O)Nc1cccc(S(=O)(=O)N(C)C)c1)C1CCCCC1 [Compound Z31013342] | 1
O=S(=O)(NCc1cccs1)c1ccc2c(c1)CCCC2 [Compound Z45423905] | 1
COc1ccccc1S(=O)(=O)N(Cc1ccccc1)Cc1ccccc1 [Compound Z45508946] | 94
COc1ccc(OC)c(S(=O)(=O)N(Cc2ccccc2)Cc2ccccc2)c1 [Compound Z45508995] | 32
CC1CCc2ccccc2N1CC(=O)Nc1ccc(Cl)c(S(=O)(=O)N(C)C)c1 (stereo not drawn) [Compound Z46500410] | 1
Cc1ccc(NC(=O)c2[nH]c(C)c(C(=O)OC(C)C)c2C)cc1S(=O)(=O)N1CCCCC1 [Compound Z51733284] | 2
CCCCNS(=O)(=O)c1cccc(NC(=O)c2cnc(C)cn2)c1 [Compound Z88583029] | 1
CCCCNS(=O)(=O)c1cccc(NC(=O)c2cc3ccccc3[nH]2)c1 [Compound Z88584859] | 2
CCCCNS(=O)(=O)c1cccc(NC(=O)c2cc(C)c(C)s2)c1 [Compound Z88584860] | 1

SMILES | SI (vs PMM)
CCCCNS(=O)(=O)c1cccc(NC(=O)c2ccc(C)c(OC)c2)c1 [Compound Z109591588] | 1
COC(=O)c1c(C)[nH]c(C(=O)Nc2cccc(S(C)(=O)=O)c2)c1C [Compound Z109929482] | 1
CC1CCc2ccccc2N1CC(=O)N1CCCc2cc(S(=O)(=O)N(C)C)ccc21 (stereo not drawn) [Compound Z195652240] | 1
COc1ccc(S(=O)(=O)N(Cc2cccc(F)c2)Cc2cccc(F)c2)cc1OC [Compound Z220633200] | 3
COc1ccc(S(=O)(=O)N(Cc2ccccc2C#N)Cc2ccccc2C#N)cc1OC [Compound Z220633250] | 7
COc1ccc(S(=O)(=O)N(C)C)cc1NC(=O)C1CCCc2ccccc21 (stereo not drawn) [Compound Z300980532] | 1
CN(C)S(=O)(=O)c1cccc(NC(=O)CN2CCCc3cc(F)cc(F)c32)c1 [Compound Z369155588] | 1
CNC(=O)NC(=O)COc1ccc(S(N)(=O)=O)cc1 [Compound Z381095182] | 1
COC(=O)c1cccc(C(=O)Nc2cccc(S(=O)(=O)N3CCCC3)c2)n1 [Compound Z441654950] | 1
Fc1cccc(Cl)c1CNc1ccccc1-n1cccn1 [Compound Z739504072] | 1
CCc1c(C(=O)Nc2cc(S(=O)(=O)NC)ccc2C)[nH]c(C)c1C(C)=O [Compound Z792473370] | 1
CCCc1c(C(=O)Nc2cccc(S(=O)(=O)NCc3ccco3)c2)[nH]c(C)c1C(C)=O [Compound Z966334826] | 2
Cc1ccc(NC(=O)CN(CC(C)C)c2cccc(O)c2)cc1S(=O)(=O)N(C)C [Compound Z1317978681] | 2
Cc1ccc(NC(=O)CN2CCCCc3ccccc32)cc1S(=O)(=O)N1CCOCC1 [Compound Z1318043362] | 1
CCCOc1cc(C)c(C)cc1S(=O)(=O)NC1CCCC1 [DNDI0002550535] | 1
CCCCOc1cc(C)c(Cl)cc1S(=O)(=O)NCc1cccnc1 [DNDI0002558122] | 2
COc1cc(S(=O)(=O)NCc2ccccc2)c(OC)cc1C [DNDI0002564850] | 1
CCCCCOc1cc(C)c(Cl)cc1S(=O)(=O)NCc1ccco1 [DNDI0002567970] | 30
CCCOc1cc(C)c(Cl)cc1S(=O)(=O)NCc1cccs1 [DNDI0002572626] | 1

SMILES | SI (vs PMM)
CCCCOc1cc(C)c(Cl)cc1S(=O)(=O)NCc1cccs1 [DNDI0002620367] | 41
COc1cc(S(=O)(=O)NC(C)c2ccccc2)c(OC)cc1C (stereo not drawn) [DNDI0002622495] | 1
CCCOc1cc(C)c(C)cc1S(=O)(=O)NCC1CCCO1 (stereo not drawn) [DNDI0002622936] | 1
COc1ccc(Cl)cc1S(=O)(=O)N(CC(=O)N1CCN(C)CC1)Cc1ccccc1 [DNDI0003363387] | 1
COc1ccc(OC)c(S(=O)(=O)N2CCCC2c2ccc(F)cc2)c1 (stereo not drawn) [DNDI0003363388] | 3
COc1ccc(Cl)cc1S(=O)(=O)N(CC(=O)N1CCCC1)Cc1ccccc1 [DNDI0003363389] | 2
CC(=O)Nc1ccc(Cl)c(C(=O)NC(Cn2ccnc2)c2ccccc2)c1 (stereo not drawn) [DNDI0003363391] | 1
O=C(NC(Cn1ccnc1)c1ccccc1)c1ccc(-n2cnnn2)cc1 (stereo not drawn) [DNDI0003363392] | 1
COc1ccc(C)cc1S(=O)(=O)N(CC(=O)N1CCOCC1)Cc1ccccc1 [DNDI0003363393] | 3
CCN(CC)C(=O)CN(Cc1ccccc1)S(=O)(=O)c1ccc(OC)c(OC)c1 [DNDI0003363394] | 2
COc1ccc(C)cc1S(=O)(=O)N(CC(=O)Nc1ccccc1)Cc1ccccc1 [DNDI0003363395] | 1
COc1ccc(C)cc1S(=O)(=O)N(CC(=O)NCc1ccc(Cl)cc1)Cc1ccccc1 [DNDI0003363396] | 2
COc1ccc(C)cc1S(=O)(=O)N(CC(N)=O)Cc1ccccc1 [DNDI0003363397] | 1
COc1ccc(OC)c(S(=O)(=O)N2CCc3ccccc3C2)c1 [DNDI0003363398] | 1
COc1ccc(C)cc1S(=O)(=O)N(CC(=O)O)Cc1ccccc1 [DNDI0003363399] | 1
COc1ccc(S(=O)(=O)N(CC(=O)NC2CC2)Cc2ccccc2)cc1C [DNDI0003363400] | 1
O=C(COc1ccc(Cl)cc1S(=O)(=O)NCc1ccccc1)N1CCOCC1 [DNDI0003363401] | 1
COc1ccc(OC)c(S(=O)(=O)n2cc(C)nc2-c2ccccc2)c1 [DNDI0003363402] | 1

Same assay, conditions: selectivity index PMM vs L. infantum

SMILES | SI (vs PMM)
COc1ccc(CN(Cc2ccc(F)cc2)S(=O)(=O)c2cc(C#N)ccc2OC)cc1 [DNDI0003371172] | 22
COc1ccc(C(=O)N2CCN(C)CC2)cc1S(=O)(=O)N(Cc1ccc(F)cc1)Cc1ccc(F)cc1 [DNDI0003371173] | 59
COc1ccc(C(=O)NC2COC2)cc1S(=O)(=O)N(Cc1ccc(F)cc1)Cc1ccc(F)cc1 [DNDI0003371174] | 81
COc1ccc(C(=O)N(C)CCO)cc1S(=O)(=O)N(Cc1ccc(F)cc1)Cc1ccc(F)cc1 [DNDI0003371175] | 31
COc1ccc(C(=O)NCCO)cc1S(=O)(=O)N(Cc1ccc(F)cc1)Cc1ccc(F)cc1 [DNDI0003371176] | 25
COCCNC(=O)c1ccc(OC)c(S(=O)(=O)N(Cc2ccc(F)cc2)Cc2ccc(F)cc2)c1 [DNDI0003371177] | 62
COc1ccc(C(=O)N2CCOCC2)cc1S(=O)(=O)N(Cc1ccc(F)cc1)Cc1ccc(F)cc1 [DNDI0003371178] | 63
COc1ccc(CN(Cc2ccc(F)cc2)S(=O)(=O)c2cc(F)ccc2OCCN(C)C)cc1 [DNDI0003378485] | 2
O=S(=O)(c1cc(F)ccc1F)N(Cc1ccccc1)C(CO)c1ccc(F)cc1 (stereo not drawn) [DNDI0003378486] | 2
COc1ccc(C#N)cc1S(=O)(=O)N(Cc1ccc(F)cc1)C1CCOCC1 [DNDI0003388084] | 1
COc1ccc(-c2nc(C)no2)cc1S(=O)(=O)N(Cc1ccc(F)cc1)Cc1ccc(F)cc1 [DNDI0003388085] | 11
COc1ccc(OC)c(S(=O)(=O)N(Cc2ccc(F)cc2)C2CCOCC2)c1 [DNDI0003388086] | 1
COc1ccc(CN(Cc2ccc(F)cc2)S(=O)(=O)c2cc(OC)ccc2OC)cc1 [DNDI0003388087] | 6
COc1ccc(OC)c(S(=O)(=O)N(Cc2ccc(F)cc2)Cc2ccc(C#N)cc2)c1 [DNDI0003388088] | 3
COc1ccc(Cl)cc1S(=O)(=O)N(Cc1ccccc1)C(CO)c1ccc(F)cc1 (stereo not drawn) [DNDI0003388149] | 38
COc1ccc(CN(Cc2ccc(F)cc2)S(=O)(=O)c2cc(F)ccc2F)cc1 [DNDI0003388150] | 1
COc1ccc(CNC2COC2)cc1S(=O)(=O)N(Cc1ccc(F)cc1)Cc1ccc(F)cc1 [DNDI0003389115] | 36
COc1ccc(CN2CCC(F)(F)CC2)cc1S(=O)(=O)N(Cc1ccc(F)cc1)Cc1ccc(F)cc1 [DNDI0003389116] | 14
CN(C)c1ncccc1S(=O)(=O)N(Cc1ccc(F)cc1)Cc1ccc(F)cc1 [DNDI0003389117] | 11
COc1ccc(N2CCOCC2)cc1S(=O)(=O)N(Cc1ccc(F)cc1)Cc1ccc(F)cc1 [DNDI0003389118] | 200
O=S(=O)(c1cccnc1N1CCOCC1)N(Cc1ccc(F)cc1)Cc1ccc(F)cc1 [DNDI0003389119] | 23
O=S1(=O)c2cc(F)ccc2OCC(c2ccc(F)cc2)N1Cc1ccccc1 (stereo not drawn) [DNDI0003389122] | 2
